According to the supplement of paper PMC10849652:
The list shows a part of the results.

Protein sequences, listed by entry. Tags and fused reporters are not part of them. Lines headed by an entry give the natural chain unless they say otherwise; changes in a name come on top.
UniProt Q6P1Q0: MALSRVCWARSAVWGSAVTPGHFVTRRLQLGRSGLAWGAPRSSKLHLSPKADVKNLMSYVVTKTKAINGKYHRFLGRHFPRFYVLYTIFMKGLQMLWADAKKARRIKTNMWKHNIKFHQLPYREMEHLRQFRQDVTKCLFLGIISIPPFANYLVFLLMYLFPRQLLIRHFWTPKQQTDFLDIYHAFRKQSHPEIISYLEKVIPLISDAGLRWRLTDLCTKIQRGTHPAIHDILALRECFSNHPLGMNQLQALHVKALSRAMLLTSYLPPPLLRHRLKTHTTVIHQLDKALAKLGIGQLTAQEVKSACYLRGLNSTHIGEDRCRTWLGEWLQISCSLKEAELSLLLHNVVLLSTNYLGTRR
UniProt Q15031: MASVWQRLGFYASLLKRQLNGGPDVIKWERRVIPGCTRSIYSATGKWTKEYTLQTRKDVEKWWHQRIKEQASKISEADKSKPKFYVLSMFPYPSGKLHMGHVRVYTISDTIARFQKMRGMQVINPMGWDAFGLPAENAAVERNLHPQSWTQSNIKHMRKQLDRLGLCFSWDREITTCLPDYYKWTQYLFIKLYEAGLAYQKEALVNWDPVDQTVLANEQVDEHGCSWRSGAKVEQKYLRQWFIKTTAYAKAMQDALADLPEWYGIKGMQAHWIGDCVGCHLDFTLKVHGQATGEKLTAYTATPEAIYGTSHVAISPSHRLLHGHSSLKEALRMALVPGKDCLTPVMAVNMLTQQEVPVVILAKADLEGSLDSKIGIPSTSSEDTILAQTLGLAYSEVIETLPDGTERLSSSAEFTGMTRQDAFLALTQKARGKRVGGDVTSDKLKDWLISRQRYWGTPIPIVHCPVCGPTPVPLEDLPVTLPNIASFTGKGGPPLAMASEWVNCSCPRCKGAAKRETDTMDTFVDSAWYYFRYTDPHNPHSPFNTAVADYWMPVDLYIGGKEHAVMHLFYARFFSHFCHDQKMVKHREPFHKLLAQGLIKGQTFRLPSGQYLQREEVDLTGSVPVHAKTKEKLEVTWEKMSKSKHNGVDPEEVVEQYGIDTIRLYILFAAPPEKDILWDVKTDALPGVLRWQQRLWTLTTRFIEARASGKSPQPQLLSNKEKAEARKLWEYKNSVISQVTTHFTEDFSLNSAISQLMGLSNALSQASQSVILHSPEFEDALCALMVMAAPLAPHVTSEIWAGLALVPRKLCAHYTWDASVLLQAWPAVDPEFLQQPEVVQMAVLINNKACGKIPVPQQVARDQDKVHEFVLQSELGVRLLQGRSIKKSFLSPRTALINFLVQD
UniProt Q9UIC8: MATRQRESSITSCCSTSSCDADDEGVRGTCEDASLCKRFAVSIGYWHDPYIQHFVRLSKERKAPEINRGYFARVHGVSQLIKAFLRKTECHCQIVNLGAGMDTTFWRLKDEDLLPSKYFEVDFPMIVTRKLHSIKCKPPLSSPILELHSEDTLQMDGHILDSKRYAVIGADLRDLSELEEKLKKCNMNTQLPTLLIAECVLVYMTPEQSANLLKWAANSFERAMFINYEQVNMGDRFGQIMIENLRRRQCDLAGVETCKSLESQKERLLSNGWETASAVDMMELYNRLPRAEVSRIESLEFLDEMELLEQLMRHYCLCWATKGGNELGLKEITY
UniProt P25791: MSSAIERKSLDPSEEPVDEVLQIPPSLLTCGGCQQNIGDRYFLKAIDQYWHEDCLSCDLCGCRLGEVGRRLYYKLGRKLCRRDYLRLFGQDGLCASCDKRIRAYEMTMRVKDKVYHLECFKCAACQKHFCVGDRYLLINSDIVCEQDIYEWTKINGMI
UniProt Q8TDW0: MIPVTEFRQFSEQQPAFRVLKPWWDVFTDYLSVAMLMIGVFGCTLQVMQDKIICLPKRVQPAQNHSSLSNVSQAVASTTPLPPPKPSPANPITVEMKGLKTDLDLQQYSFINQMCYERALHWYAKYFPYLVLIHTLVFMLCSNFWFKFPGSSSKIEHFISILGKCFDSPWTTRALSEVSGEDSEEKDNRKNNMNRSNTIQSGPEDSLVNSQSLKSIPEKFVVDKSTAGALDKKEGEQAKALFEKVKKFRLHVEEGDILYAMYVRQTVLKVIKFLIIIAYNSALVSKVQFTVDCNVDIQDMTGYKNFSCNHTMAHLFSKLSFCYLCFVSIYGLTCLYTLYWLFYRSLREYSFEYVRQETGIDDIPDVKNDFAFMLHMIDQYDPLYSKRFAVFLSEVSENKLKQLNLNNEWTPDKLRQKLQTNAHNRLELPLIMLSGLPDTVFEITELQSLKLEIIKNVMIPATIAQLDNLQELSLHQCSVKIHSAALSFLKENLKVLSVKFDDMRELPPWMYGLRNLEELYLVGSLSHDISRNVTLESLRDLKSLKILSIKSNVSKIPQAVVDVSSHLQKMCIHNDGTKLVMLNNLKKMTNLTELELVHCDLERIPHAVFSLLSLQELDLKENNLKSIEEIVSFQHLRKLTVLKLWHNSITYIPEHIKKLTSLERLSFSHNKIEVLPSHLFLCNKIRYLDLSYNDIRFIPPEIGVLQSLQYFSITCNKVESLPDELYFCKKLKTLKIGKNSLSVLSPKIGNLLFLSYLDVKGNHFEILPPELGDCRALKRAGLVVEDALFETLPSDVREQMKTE
UniProt Q9H6V9: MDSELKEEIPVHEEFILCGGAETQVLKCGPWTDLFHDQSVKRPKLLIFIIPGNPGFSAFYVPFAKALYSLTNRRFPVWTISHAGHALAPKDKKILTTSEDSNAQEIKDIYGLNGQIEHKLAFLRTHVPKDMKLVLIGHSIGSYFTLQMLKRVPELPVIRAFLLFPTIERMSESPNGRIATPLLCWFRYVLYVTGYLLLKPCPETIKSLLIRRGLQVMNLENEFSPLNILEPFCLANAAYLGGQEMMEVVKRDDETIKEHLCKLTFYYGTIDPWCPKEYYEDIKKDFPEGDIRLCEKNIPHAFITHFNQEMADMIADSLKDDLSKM
UniProt Q9H0V9: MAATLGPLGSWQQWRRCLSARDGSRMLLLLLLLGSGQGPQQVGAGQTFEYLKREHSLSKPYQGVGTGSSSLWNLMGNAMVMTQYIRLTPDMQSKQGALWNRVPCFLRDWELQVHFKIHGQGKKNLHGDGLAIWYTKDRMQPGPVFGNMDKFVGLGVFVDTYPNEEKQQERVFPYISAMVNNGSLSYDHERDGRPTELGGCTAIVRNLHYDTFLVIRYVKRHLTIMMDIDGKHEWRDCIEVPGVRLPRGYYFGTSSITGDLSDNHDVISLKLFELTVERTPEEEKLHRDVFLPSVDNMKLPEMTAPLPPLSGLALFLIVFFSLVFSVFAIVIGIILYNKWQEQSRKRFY
UniProt Q13094: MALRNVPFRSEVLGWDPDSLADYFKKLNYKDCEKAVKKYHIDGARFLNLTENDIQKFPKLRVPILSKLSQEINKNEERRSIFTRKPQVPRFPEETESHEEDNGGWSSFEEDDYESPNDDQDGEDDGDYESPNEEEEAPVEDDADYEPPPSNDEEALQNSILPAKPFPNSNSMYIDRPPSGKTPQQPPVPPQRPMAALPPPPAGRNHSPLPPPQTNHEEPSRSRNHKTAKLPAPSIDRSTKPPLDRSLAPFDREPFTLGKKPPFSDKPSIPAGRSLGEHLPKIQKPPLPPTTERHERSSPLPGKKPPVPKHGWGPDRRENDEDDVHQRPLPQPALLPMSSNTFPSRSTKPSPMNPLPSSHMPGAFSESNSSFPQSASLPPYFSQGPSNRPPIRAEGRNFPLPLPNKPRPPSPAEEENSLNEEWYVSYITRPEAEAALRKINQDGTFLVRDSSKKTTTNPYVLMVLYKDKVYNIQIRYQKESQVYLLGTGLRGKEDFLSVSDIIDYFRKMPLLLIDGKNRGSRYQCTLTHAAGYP
UniProt Q9Y4W2: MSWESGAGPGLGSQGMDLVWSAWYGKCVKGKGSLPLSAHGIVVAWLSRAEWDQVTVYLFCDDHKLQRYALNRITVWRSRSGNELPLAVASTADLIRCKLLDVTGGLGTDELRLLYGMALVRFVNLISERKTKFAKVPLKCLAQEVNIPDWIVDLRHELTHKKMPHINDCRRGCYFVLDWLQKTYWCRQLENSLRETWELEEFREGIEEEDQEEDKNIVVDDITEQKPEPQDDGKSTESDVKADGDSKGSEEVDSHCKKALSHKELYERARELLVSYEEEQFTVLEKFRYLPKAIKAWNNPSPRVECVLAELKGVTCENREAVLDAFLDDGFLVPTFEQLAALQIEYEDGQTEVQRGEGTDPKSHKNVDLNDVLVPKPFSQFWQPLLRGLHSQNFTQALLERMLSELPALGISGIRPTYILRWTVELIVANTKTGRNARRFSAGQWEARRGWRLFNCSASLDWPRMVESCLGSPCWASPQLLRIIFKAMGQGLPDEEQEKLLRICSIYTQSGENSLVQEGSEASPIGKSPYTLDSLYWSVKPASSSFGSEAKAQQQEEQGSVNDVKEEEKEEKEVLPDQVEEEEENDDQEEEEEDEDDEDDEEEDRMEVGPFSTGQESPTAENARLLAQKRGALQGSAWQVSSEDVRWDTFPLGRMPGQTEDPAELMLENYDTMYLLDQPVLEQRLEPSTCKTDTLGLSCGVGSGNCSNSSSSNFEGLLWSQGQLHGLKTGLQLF
UniProt Q9UFC0: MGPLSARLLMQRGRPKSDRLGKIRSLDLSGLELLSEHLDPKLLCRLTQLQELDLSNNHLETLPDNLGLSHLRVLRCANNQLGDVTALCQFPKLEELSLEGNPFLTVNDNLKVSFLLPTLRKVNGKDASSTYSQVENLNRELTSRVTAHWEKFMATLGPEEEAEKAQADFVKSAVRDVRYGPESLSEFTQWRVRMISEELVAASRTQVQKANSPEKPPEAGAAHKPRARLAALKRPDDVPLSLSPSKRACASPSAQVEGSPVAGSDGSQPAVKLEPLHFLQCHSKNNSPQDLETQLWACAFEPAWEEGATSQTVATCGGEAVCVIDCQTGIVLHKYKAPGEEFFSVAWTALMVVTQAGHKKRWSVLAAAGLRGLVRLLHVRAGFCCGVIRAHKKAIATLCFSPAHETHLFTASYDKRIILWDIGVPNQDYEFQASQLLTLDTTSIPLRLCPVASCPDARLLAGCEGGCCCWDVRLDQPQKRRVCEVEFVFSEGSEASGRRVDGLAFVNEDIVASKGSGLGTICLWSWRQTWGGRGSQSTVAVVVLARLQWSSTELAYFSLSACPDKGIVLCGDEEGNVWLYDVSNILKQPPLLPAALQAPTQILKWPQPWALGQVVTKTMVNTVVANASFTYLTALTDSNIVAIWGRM
UniProt Q9BX40: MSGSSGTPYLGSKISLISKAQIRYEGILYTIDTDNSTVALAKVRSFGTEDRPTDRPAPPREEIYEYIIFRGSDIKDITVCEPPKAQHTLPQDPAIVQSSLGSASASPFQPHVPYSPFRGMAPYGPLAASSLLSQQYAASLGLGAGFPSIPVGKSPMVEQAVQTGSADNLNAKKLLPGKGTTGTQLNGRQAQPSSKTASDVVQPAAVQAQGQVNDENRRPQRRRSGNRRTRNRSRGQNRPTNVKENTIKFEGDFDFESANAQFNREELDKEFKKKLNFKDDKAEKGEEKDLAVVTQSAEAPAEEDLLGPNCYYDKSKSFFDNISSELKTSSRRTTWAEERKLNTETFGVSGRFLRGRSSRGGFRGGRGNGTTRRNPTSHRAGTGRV
UniProt O00214: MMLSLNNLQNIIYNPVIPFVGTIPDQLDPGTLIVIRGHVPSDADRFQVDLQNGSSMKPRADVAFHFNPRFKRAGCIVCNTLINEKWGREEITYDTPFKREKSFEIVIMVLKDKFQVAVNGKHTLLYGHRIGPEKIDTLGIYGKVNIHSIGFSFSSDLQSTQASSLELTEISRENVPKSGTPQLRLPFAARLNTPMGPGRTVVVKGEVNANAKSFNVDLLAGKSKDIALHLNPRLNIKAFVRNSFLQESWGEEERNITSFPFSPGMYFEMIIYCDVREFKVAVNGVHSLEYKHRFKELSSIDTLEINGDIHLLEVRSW
UniProt Q9UGP4: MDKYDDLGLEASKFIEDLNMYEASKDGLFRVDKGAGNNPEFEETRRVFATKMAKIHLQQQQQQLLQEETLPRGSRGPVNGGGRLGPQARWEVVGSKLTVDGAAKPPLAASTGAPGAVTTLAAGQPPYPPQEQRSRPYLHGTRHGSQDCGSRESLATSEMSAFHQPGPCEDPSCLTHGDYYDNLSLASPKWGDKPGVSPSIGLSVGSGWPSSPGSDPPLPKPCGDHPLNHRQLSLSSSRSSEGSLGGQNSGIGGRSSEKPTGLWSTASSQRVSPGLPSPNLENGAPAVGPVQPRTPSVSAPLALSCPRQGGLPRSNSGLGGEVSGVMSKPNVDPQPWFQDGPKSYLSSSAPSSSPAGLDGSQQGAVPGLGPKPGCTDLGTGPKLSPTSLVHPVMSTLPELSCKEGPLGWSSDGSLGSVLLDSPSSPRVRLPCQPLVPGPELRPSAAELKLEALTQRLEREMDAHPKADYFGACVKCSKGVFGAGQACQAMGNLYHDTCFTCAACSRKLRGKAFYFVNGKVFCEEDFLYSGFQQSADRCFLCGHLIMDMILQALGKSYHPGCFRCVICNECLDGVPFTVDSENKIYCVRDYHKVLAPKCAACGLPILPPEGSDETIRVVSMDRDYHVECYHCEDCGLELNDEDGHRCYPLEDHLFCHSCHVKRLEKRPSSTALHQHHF

compound: NC(=O)Nc1cc(-c2cccc(F)c2)sc1C(=O)N[C@H]1CCCNC1; assay: log2 fold change, soluble protein after heating vs DMSO (PISA); higher = thermal stabilisation; K562 lysate, 10 uM; active = over 0.2 and 3.5 SD of the protein, either way, in both replicates (recomputed)
Summary of the method: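 A 30 min treatment with 10 μM compound was applied to crude K562 extract at 1 mg/mL protein in PBS pH 7.4 with 1 mM MgCl2. Heating for 3 min spanned 48°C-58°C, after which aliquots were pooled, adjusted to 0.5% NP-40 at 4°C and spun at 21,000xg for 90 min. TMTpro 16plex LC-MS/MS of the supernatant, with channel sums equalised, gave values recorded as log-two fold change in thermal stability against solvent controls, from duplicates.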

log2 fold change, inactive:
LRPPRC (UniProt P42704) 0.052
LETMD1 isoform 7 (UniProt Q6P1Q0) -0.025
LARS2 (UniProt Q15031) 0.089
LMNB2 (UniProt Q03252) -0.005
LCLAT1 (UniProt Q6UWP7) 0.03
LEO1 (UniProt Q8WVC0) -0.03
LCMT2 (UniProt O60294) 0.151
LRRC8B (UniProt Q6P9F7) -0.073
LCMT1 (UniProt Q9UIC8) -0.009
LRBA, A0A494BZW2 -0.222
LMO2 isoform 3 (UniProt P25791) 0.028
LRRC8C (UniProt Q8TDW0) 0.011
LDAH isoform 2 (UniProt Q9H6V9) 0.037
LMAN2L isoform 2 (UniProt Q9H0V9) 0.003
LRCH4 (UniProt O75427) -0.002
LCP2 (UniProt Q13094) -0.02
LAS1L (UniProt Q9Y4W2) 0.033
LRWD1 (UniProt Q9UFC0) 0.053
LSM14B isoform 2 (UniProt Q9BX40) 0.031
LGALS8 isoform 2 (UniProt O00214) 0.026
LIMD1 (UniProt Q9UGP4) 0.023
LDHA isoform 3 (UniProt P00338) -0.035

Random excerpt: 2 entries already listed.
log2 fold change, inactive:
LETMD1 isoform 7 (UniProt Q6P1Q0) -0.025
LARS2 (UniProt Q15031) 0.089
